# From PubChem BioAssay AID2417 (National Center for Advancing Translational Sciences (NCATS), 2010)
# In all, about 140,000 compounds went through this assay and about 4,300 (3.1%) were called active. Inconclusive means that the source gave no clear call. Such entries were picked first, then a sample of the others.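 How the source made its calls: active means readout at or below -70, meaning at least 70% loss of cells showing the perinucleolar compartment, a nuclear body marking cancer cells; inconclusive means readout between -30 and a set limit; inactive means the rest.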
# Assay: High Content Assay for Compounds that inhibit the Assembly of the Perinucleolar Compartment;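 further: plate controls were DMSO wells for no effect and camptothecin positive control wells for full effect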
# Conditions: PC3M PTB-GFP, PNC prevalence imaging, 16 h; at 10 µM; stronger effect = lower value
# Method in brief: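 Compounds are pinned in duplicate onto adhered PC3M cells stably expressing GFP-tagged PTB and incubated 16 h at 37 C. Cells are then fixed, nuclei stained with Hoechst, and PNC-positive cells counted.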
row,SMILES,"activity change (PNC), negative = inhibition"
1,CC(C)C[C@H](NC(=O)NC(C)C)C(=O)O,inconclusive: -43.6%
2,Cc1cc(N2CCN(c3cccc(C)c3C)CC2)nc(-c2ccccc2)n1,inconclusive: -44.6%
3,COc1cccc(Cn2nnc3c(=O)[nH]c(C4CCCN(C(=O)c5ccccc5Cl)C4)nc32)c1 (configuration not stated),inconclusive: -49.4%
4,CN(C)CCC(c1ccc(Cl)cc1)c1ccccn1 (configuration not stated),inconclusive: -46.3%
5,O=C(Nc1ccc(F)cc1)NC1CCN(Cc2nnnn2Cc2ccco2)CC1,inactive: 33.1%
6,CCC(C)NC(=O)CCCc1ccccc1 (configuration not stated),inconclusive: -33.9%
7,Cn1cccc1/C=N/NC(=O)c1ccn[nH]1,active: -119%
8,C=CCn1c(SCC(N)=O)nnc1-c1cccc(Br)c1,inconclusive: -62.9%
9,CCOC(=O)c1sc2ncn(/N=C/c3cccnc3)c(=O)c2c1C,inactive: 18.6%
10,CC(Oc1ccc(Cl)cc1Cl)C(=O)NN=C1CCN(C)CC1 (configuration not stated),inactive: -22.2%
11,CC(C)C1Cc2c(sc3[nH]c(=S)n(Cc4ccccc4)c(=O)c23)CO1 (configuration not stated),inconclusive: -34.3%
12,Cc1ccc(C(=O)NC2CC3CCC(C2)N3Cc2ccco2)cc1 (configuration not stated),inconclusive: -35.8%
13,CS(=O)(=O)N(Cc1ccc(F)cc1)Cc1nc2ccccc2c(=O)[nH]1,inactive: 24%
14,CCN1C(=O)/C(=C/N2CC(C)CC(C)C2)SC1=S (configuration not stated),active: -88.8%
15,COc1cccc(-c2csc(N3CCN(CC(=O)NNC(=O)c4ccc(Br)cc4)CC3)n2)c1,inconclusive: -46.2%
16,COc1ccc2nc(NC(=O)CN(c3ccc(C)cc3)S(=O)(=O)c3c(C)nn(C)c3C)sc2c1,inactive: 18.4%
17,Cc1ccc(C(=O)CSc2nnc(COc3cccc4cccnc34)o2)cc1,inconclusive: -34.8%
18,CNC(=O)/C(=C/c1ccc2c(c1)OCO2)NC(=O)c1ccc(Br)cc1,inconclusive: -38.6%
19,Cn1c(Cc2c[nH]c3ccccc23)n[nH]c1=S,inactive: -2.23%
20,CNC(=S)N=Nc1c(O)[nH]c2ccc(C(C)C)cc12,inactive: -10.4%
21,CSc1nc(C)cc(-n2ccc(=O)[nH]c2=O)n1,inactive: 40.6%
22,CCN(CC)C(=O)c1oc2ccc(S(=O)(=O)N3CCCCCC3)cc2c1C,inactive: -14.7%
23,O=C(CN1CCN(C/C=C/c2ccccc2)CC1)Nc1cc([N+](=O)[O-])ccc1Cl,active: -124%

# In the list so far, these contain fluorine:
row,SMILES,"activity change (PNC), negative = inhibition"
5,O=C(Nc1ccc(F)cc1)NC1CCN(Cc2nnnn2Cc2ccco2)CC1,inactive: 33.1%
13,CS(=O)(=O)N(Cc1ccc(F)cc1)Cc1nc2ccccc2c(=O)[nH]1,inactive: 24%

# Continuation:

row,SMILES,"activity change (PNC), negative = inhibition"
1,CCc1nnc(NC(=O)CSc2nnc(-c3ccc(S(=O)(=O)N4CCCC4)cc3)n2CC)s1,inconclusive: -34.9%
2,CSc1nc(N(C)NC(=O)c2ccc(Cl)cc2)c2ccccc2n1,active: -97.1%
3,O=[N+]([O-])c1ccc(/C=N/N/C(=N/c2ccccn2)c2ccccn2)cc1,inactive: -28.6%
4,CC(C)C(C(=O)Nc1cccnc1)N1C(=O)c2ccccc2C1=O (configuration not stated),inconclusive: -38.4%
5,Clc1ccc(OCc2nn3c(C4CCCCC4)nnc3s2)c(Cl)c1,active: -82.1%
6,Cc1csc(=Nc2ccccc2)n1CCO,inactive: -25.4%
7,CCC(=O)Nc1nnc(SCCOC)s1,inconclusive: -33.6%
8,CCOC(=O)c1nn(-c2ccccc2)c(-c2ccccc2)c1C(=O)c1ccccc1,inactive: 65.3%
9,COc1ccccc1N=c1oc2cc(O)ccc2cc1C(N)=O,inconclusive: -33.8%
10,CCOC(=O)c1cccc(NC(=O)CSc2nnc(COc3ccccc3)n2CC)c1,inactive: -15.1%
11,CC(=O)c1cccc(NC(=O)COc2ccccc2)c1,inconclusive: -57.5%
12,CCOC(=O)C1CCCCN1Cc1cccc(OC)c1OC (configuration not stated),inactive: -20.2%
13,O=C(N/N=C/c1ccc(-c2ccccc2[N+](=O)[O-])o1)c1cccnc1,inconclusive: -51.8%
14,O=C(CCCN1C(=O)c2cccc3cccc(c23)C1=O)N1CCN(Cc2ccc3c(c2)OCO3)CC1,inactive: -24.4%
15,COc1ccc(Nc2ncccc2C(=O)O)cc1,inconclusive: -64.3%
16,CCCCSc1nc2c(cc1C#N)CCC2,inactive: 33.9%
17,Cc1cccc(C)c1NC(=O)/C(C#N)=C/c1ccsc1,inconclusive: -30.8%
18,N#Cc1ccc(NC(=O)CCc2ccc(S(=O)(=O)N3CCOCC3)cc2)cc1,inconclusive: -30.4%
19,COc1cc2cc(CN(Cc3cccs3)C(=S)Nc3cccc(C)c3)c(=O)[nH]c2cc1OC,active: -113%
20,NC(=O)NC(CC(=O)OCC(=O)NC(=O)NCc1ccco1)c1ccc(Cl)cc1 (configuration not stated),inconclusive: -66.9%
21,COc1cc(C)c(S(=O)(=O)N2CCOCC2)cc1C(C)C,inconclusive: -30.3%
22,O=C1c2oc3ccccc3c(=O)c2C(c2cccc(Br)c2)N1Cc1ccco1 (configuration not stated),inconclusive: -53.9%
23,CCn1cc(C2C3=C(CC(C)(C)CC3=O)N(c3ccccc3)C3=C2C(=O)CC(C)(C)C3)c(C)n1,inconclusive: -66%

row,SMILES,"activity change (PNC), negative = inhibition"
1,COc1ccc(/C=N/NC(=O)c2nn(-c3ccc(Cl)cc3)c(=O)c3c(N)scc23)cc1,inactive: 56.4%
2,S=C(NCCCc1ccccc1)Nc1ccc(Cl)cc1,inconclusive: -41.2%
3,CCCS(=O)(=O)n1nc(-c2ccccc2)cc1N,inconclusive: -39.6%
4,N#Cc1ccccc1OCCOCCNC1CCCC1,inconclusive: -39.2%
5,CC(Oc1ccccc1Cl)c1nnc(N)s1 (configuration not stated),active: -117%
6,Cc1nc2ccccc2n1CC(=O)N/N=C/c1cccs1,inconclusive: -35.3%
7,O=C(NCCCN1CCCC1)Nc1cccc2ccccc12,inconclusive: -38.2%
8,CS(=O)(=O)N1CCCC(C(=O)NCc2ccc(F)cc2)C1 (configuration not stated),inactive: 23%
9,CCC(C)NC(=O)c1ccc(CSc2nc3ccncc3n2Cc2ccc(F)cc2)cc1 (configuration not stated),inactive: 60.4%
10,COc1ccc(CCNC(=O)CCCCn2c(=O)[nH]c3ccccc3c2=O)cc1OC,inactive: -14.6%
11,CSc1nc2nc3c(cn2n1)C(=O)CC(c1ccccc1)C3 (configuration not stated),inactive: 24.3%
12,CSc1nc2c(c(=O)n1-c1ccccc1)SCC2,inconclusive: -33.6%
13,CCOC(=O)N1CCN(C(=O)c2ccc3c(SCC(=O)O)c4c(nc3c2)CCCC4)CC1,inactive: -7.59%
14,Cc1cc(S(=O)(=O)NCCc2ccccc2)c(C)s1,inconclusive: -61.2%
15,Cc1ccc(C(=O)c2c(NC(=O)c3ccccc3)sc(C)c2C)cc1,inactive: 71.1%
16,O=C(O)CNC(=O)c1nc(-c2ccccc2)n(-c2ccccc2)n1,inconclusive: -37.6%
17,O=C(CSc1nc2ccccc2c(=O)n1-c1ccc(OC(F)F)cc1)NCc1cccs1,inactive: 42%
18,CC(C)c1ccccc1NC(=O)CCc1nc2ccccc2s1,inactive: -22.9%
19,Cc1ccc(C(=O)OCC(=O)c2c[nH]c3ccccc23)cc1,inactive: 68.3%
20,CCOC(=O)c1ccc(N2CCN(c3ccccc3F)CC2)c(NC(=O)Nc2cccc(OC)c2)c1,inconclusive: -30.3%
21,Oc1[nH]c2ccccc2c1N=Nc1ccccc1F,inconclusive: -73%
22,N#Cc1cc2c(nc1SCc1ccc(Cl)cc1)CCCC2,inconclusive: -48.9%
23,O=C(O)c1ccc(COc2ccc(CO)cc2Cl)cc1,inactive: 21.4%

row,SMILES,"activity change (PNC), negative = inhibition"
1,CCN(C(=O)CSc1nnc(Nc2cccc(C)c2C)s1)C1CCS(=O)(=O)C1 (configuration not stated),inconclusive: -53.5%
2,S=C(Nc1ccc(Oc2ccccc2)cc1)NC1CCCCCC1,inactive: -3.11%
3,COc1ccccc1NC(=O)CN1C(=O)NC(C)(C)C1=O,inconclusive: -63.3%
4,CC(CCc1ccccc1)NCc1ccncc1 (configuration not stated),inconclusive: -62%
5,C/C(=N\OC(=O)c1ccccc1F)c1nccs1,inactive: -0.692%
6,O=C(Cn1cc(SCc2ccc(Cl)cc2)c2ccccc21)N1CCOCC1,inconclusive: -32.1%
7,O=[n+]1c2c(n([O-])c3c1CCCC3)CCCCC2,inconclusive: -58.4%
8,COc1ccccc1OCCSc1nc2ccccc2c(=O)[nH]1,inconclusive: -31.5%
9,COCCN(CCOC)S(=O)(=O)c1ccc(C(=O)NC2CCN(Cc3ccccc3)CC2)cc1,inconclusive: -60.6%
10,Cc1cc(C)c[n+](CC(=O)c2ccc(-c3ccccc3)cc2)c1,inconclusive: -34.9%
11,O=C(COc1ccc(Cl)cc1)NCc1nnc(SCC(=O)Nc2ccccc2)o1,inconclusive: -73.2%
12,CCc1ccc2[nH]c(=O)c(CN(CCN3CCOCC3)C(=O)Nc3ccccc3F)cc2c1,active: -86%
13,O=c1[nH][nH]c(-c2ccccc2O)c1C(C[N+](=O)[O-])c1ccc(Cl)cc1Cl (configuration not stated),inconclusive: -59%
14,O=C(O)CCn1c(-c2ccccc2)cc2c1CCCC2=O,inconclusive: -40.4%
15,COc1c(OC2OC(C(=O)O)C(O)C(O)C2O)cc(O)c2c(=O)cc(-c3ccccc3)oc12 (configuration not stated),inconclusive: -33.5%
16,O=[N+]([O-])c1ccc(N2CCN(S(=O)(=O)c3ccccc3)CC2)cc1NCc1cccnc1,inconclusive: -52.2%
17,COc1ccc(CN(C)CC(=O)c2c(N)n(Cc3ccccc3)c(=O)n(C)c2=O)c(OC)c1,inconclusive: -33.7%
18,Cc1ccc([N+](=O)[O-])cc1NC(=O)c1ccoc1C,inconclusive: -66.1%
19,CCOc1ccc(C(=O)CN2CCN(S(=O)(=O)c3ccc(Br)cc3)CC2)cc1,inactive: 6.75%
20,CC(C)c1cc(NC(=O)CSc2nnc(-c3ccccc3F)n2C)on1,active: -100%
21,CCOc1ccccc1-c1n[nH]c(=S)o1,inconclusive: -41%
22,Cc1ccc(NCCC(=O)c2cccc([N+](=O)[O-])c2)c(C)c1,active: -83.9%
23,Cc1cccc(N2CN(Cc3ccco3)CNC2=S)c1C,inconclusive: -38.4%

# Structural class, those above containing an aryl thioether with sulfur outside any ring (19)
row,SMILES,"activity change (PNC), negative = inhibition"
8,C=CCn1c(SCC(N)=O)nnc1-c1cccc(Br)c1,inconclusive: -62.9%
17,Cc1ccc(C(=O)CSc2nnc(COc3cccc4cccnc34)o2)cc1,inconclusive: -34.8%
21,CSc1nc(C)cc(-n2ccc(=O)[nH]c2=O)n1,inactive: 40.6%
1,CCc1nnc(NC(=O)CSc2nnc(-c3ccc(S(=O)(=O)N4CCCC4)cc3)n2CC)s1,inconclusive: -34.9%
2,CSc1nc(N(C)NC(=O)c2ccc(Cl)cc2)c2ccccc2n1,active: -97.1%
7,CCC(=O)Nc1nnc(SCCOC)s1,inconclusive: -33.6%
10,CCOC(=O)c1cccc(NC(=O)CSc2nnc(COc3ccccc3)n2CC)c1,inactive: -15.1%
16,CCCCSc1nc2c(cc1C#N)CCC2,inactive: 33.9%
9,CCC(C)NC(=O)c1ccc(CSc2nc3ccncc3n2Cc2ccc(F)cc2)cc1 (configuration not stated),inactive: 60.4%
11,CSc1nc2nc3c(cn2n1)C(=O)CC(c1ccccc1)C3 (configuration not stated),inactive: 24.3%
12,CSc1nc2c(c(=O)n1-c1ccccc1)SCC2,inconclusive: -33.6%
13,CCOC(=O)N1CCN(C(=O)c2ccc3c(SCC(=O)O)c4c(nc3c2)CCCC4)CC1,inactive: -7.59%
17,O=C(CSc1nc2ccccc2c(=O)n1-c1ccc(OC(F)F)cc1)NCc1cccs1,inactive: 42%
22,N#Cc1cc2c(nc1SCc1ccc(Cl)cc1)CCCC2,inconclusive: -48.9%
1,CCN(C(=O)CSc1nnc(Nc2cccc(C)c2C)s1)C1CCS(=O)(=O)C1 (configuration not stated),inconclusive: -53.5%
6,O=C(Cn1cc(SCc2ccc(Cl)cc2)c2ccccc21)N1CCOCC1,inconclusive: -32.1%
8,COc1ccccc1OCCSc1nc2ccccc2c(=O)[nH]1,inconclusive: -31.5%
11,O=C(COc1ccc(Cl)cc1)NCc1nnc(SCC(=O)Nc2ccccc2)o1,inconclusive: -73.2%
20,CC(C)c1cc(NC(=O)CSc2nnc(-c3ccccc3F)n2C)on1,active: -100%
